These are yes or no findings as the source states them, for the method shown. In cells and extracts the contact can be indirect. Some binding calls cover weakened binding; strength is not graded here. Sequences can lack the tags named with a protein.
B1: Prohibitin (protein, UniProt P67779 1-272)
chain: MAAKVFESIGKFGLALAVAGGVVNSALYNVDAGHRAVIFDRFRGVQDIVVGEGTHFLIPWVQKPIIFDCRSRPRNVPVITGSKDLQNVNITLRILFRPVASQLPRIYTSIGEDYDERVLPSITTEILKSVVARFDAGELITQRELVSRQVSDDLTERAATFGLILDDVSLTHLTFGKEFTEAVEAKQVAQQEAERARFVVEKAEQQKKAAIISAEGDSKAAELIANSLATAGDGLIELRKLEAAEDIAYQLSRSRNITYLPAGQSVLLQLPQ
B2: O-linked β-N-acetylglucosamine transferase (enzyme, UniProt P56558 1-1036)
chain: MASSVGNVADSTGLAELAHREYQAGDFEAAERHCMQLWRQEPDNTGVLLLLSSIHFQCRRLDRSAHFSTLAIKQNPLLAEAYSNLGNVYKERGQLQEAIEHYRHALRLKPDFIDGYINLAAALVAAGDMEGAVQAYVSALQYNPDLYCVRSDLGNLLKALGRLEEAKACYLKAIETQPNFAVAWSNLGCVFNAQGEIWLAIHHFEKAVTLDPNFLDAYINLGNVLKEARIFDRAVAAYLRALSLSPNHAVVHGNLACVYYEQGLIDLAIDTYRRAIELQPHFPDAYCNLANALKEKGSVAEAEDCYNTALRLCPTHADSLNNLANIKREQGNIEEAVRLYRKALEVFPEFAAAHSNLASVLQQQGKLQEALMHYKEAIRISPTFADAYSNMGNTLKEMQDVQGALQCYTRAIQINPAFADAHSNLASIHKDSGNIPEAIASYRTALKLKPDFPDAYCNLAHCLQIVCDWTDYDERMKKLVSIVAEQLEKNRLPSVHPHHSMLYPLSHGFRKAIAERHGNLCLDKINVLHKPPYEHPKDLKLSDGRLRVGYVSSDFGNHPTSHLMQSIPGMHNPDKFEVFCYALSPDDGTNFRVKVMAEANHFIDLSQIPCNGKAADRIHQDGIHILVNMNGYTKGARNELFALRPAPIQAMWLGYPGTSGALFMDYIITDQETSPAEVAEQYSEKLAYMPHTFFIGDHANMFPHLKKKAVIDFKSNGHIYDNRIVLNGIDLKAFLDSLPDVKIVKMKCPDGGDNADTTNTALNMPVIPMNTIAEAVIEMINRGQIQITINGFSISNGLATTQINNKAATGEEVPRTIIVTTRSQYGLPEDAIVYCNFNQLYKIDPSTLQMGANILKRVPNSVLWLLRFPAVGEPNIQQYAQNMGLPQNRIIFSPVAPKEEHVRRGQLADVCLDTPLCNGHTTGMDVLWAGTPMVTMPGETLASRVAASQLTCLGCLELIAKSRQEYEDIAVKLGTDLEYLKKIRGKVWKQRISSPLFNTKQYTMELERLYLQMWEHYAAGNKPDHMIKPVEVTESA

Legend:
[1] = target: T1, O-linked β-N-acetylglucosamine transferase (rat (endogenous in RINm5F)) (UniProt P56558); assay: co-IP; RINm5F cells without insulin treatment; lysate incubated overnight at 4°C with rabbit polyclonal anti-PHB or monoclonal anti-OGT antibody, Dynabeads Protein A, washed 5x in ice cold PBS; immunoblot with the respective antibodies
T1 sequence: B2 chain

[2] = target: T1, O-linked β-N-acetylglucosamine transferase (rat (endogenous in RINm5F)); assay: co-IP; RINm5F cells treated with insulin (100 nM); lysate incubated overnight at 4°C with rabbit polyclonal anti-PHB or monoclonal anti-OGT antibody, Dynabeads Protein A, washed 5x in ice cold PBS; immunoblot with the respective antibodies
[3] = target: T2, Prohibitin (rat (endogenous in RINm5F)) (UniProt P67779); assay: as above
T2 sequence: B1 chain

Binder | binding [1] | binding [2] | binding [3]
B1 | binds weakly | binds | 
B2 |  |  | binds
